Assay results published in patent US20070072904A1, “PPAR active compounds” (priority 2005, published 2007).
Some entries share one result that the patent states for a list of compounds.

System: PPARα, PPARγ and PPARδ
Assay: PPAR activity assays: biochemical assay of Example 9 or cell based assay of Example 10, at least one of the PPARs
Details: read-out: EC50 in at least one of PPARα, PPARγ and PPARδ activity assays; either biochemical assay of Example 9 or cell based assay of Example 10; at least one of the PPARs

SMILES	EC50
O=C(O)CCc1cn(S(=O)(=O)c2ccc(-c3ccc(Cl)c(C(F)(F)F)c3)s2)c2ccc(F)cc12 [Compound P-0511, 3-{1-[5-(4-Chloro-3-trifluoromethyl-phenyl)-thiophene-2-sulfonyl]-5-fluoro-1H-indol-3-yl}-propionic acid]	≤ 1000 nM
CCOc1ccc2c(CCC(=O)O)cn(S(=O)(=O)c3ccc(Oc4ccc(Cl)c(Cl)c4)cc3)c2c1 [Compound P-0351, 3-{1-[4-(3,4-Dichloro-phenoxy)-benzenesulfonyl]-6-ethoxy-1H-indol-3-yl}-propionic acid]	≤ 1000 nM
COc1ccc2c(c1)c(CCC(=O)O)cn2S(=O)(=O)c1ccc(-c2cnc(OC)nc2OC)s1 [Compound P-0466, 3-{1-[5-(2,4-Dimethoxy-pyrimidin-5-yl)-thiophene-2-sulfonyl]-5-methoxy-1H-indol-3-yl}-propionic acid]	≤ 1000 nM
CCCCOc1ccc(S(=O)(=O)n2cc(CCC(=O)O)c3cc(-c4cccnc4)ccc32)cc1 [Compound P-0108, 3-[1-(4-Butoxy-benzenesulfonyl)-5-pyridin-3-yl-1H-indol-3-yl]-propionic acid]	≤ 1000 nM
COc1ccc2c(c1)c(CCC(=O)O)cn2S(=O)(=O)c1ccc(-c2ccc(OC(C)C)cc2)s1 [Compound P-0037, 3-{1-[5-(4-Isopropoxy-phenyl)-thiophene-2-sulfonyl]-5-methoxy-1H-indol-3-yl}-propionic acid]	≤ 1000 nM
O=C(O)CCc1cn(S(=O)(=O)c2ccc(-c3ccc(Cl)c(Cl)c3)s2)c2ccc(Cl)cc12 [Compound P-0486, 3-{5-Chloro-1-[5-(3,4-dichloro-phenyl)-thiophene-2-sulfonyl]-1H-indol-3-yl}-propionic acid]	≤ 1000 nM
COc1ccc(Oc2cccc(S(=O)(=O)n3cc(CCC(=O)O)c4cc(OC)ccc43)c2)cc1 [Compound P-0561, 3-{5-Methoxy-1-[3-(4-methoxy-phenoxy)-benzenesulfonyl]-1H-indol-3-yl}-propionic acid]	≤ 1000 nM
CC(C)Oc1ccc2c(c1)c(CCC(=O)O)cn2S(=O)(=O)c1ccc(Oc2ccncc2)cc1 [Compound P-0317, 3-{5-Isopropoxy-1-[4-(pyridin-4-yloxy)-benzenesulfonyl]-1H-indol-3-yl}-propionic acid]	≤ 1000 nM
Cc1ccc(-c2ccccc2S(=O)(=O)n2cc(CCC(=O)O)c3cc4c(cc32)OCO4)cc1 [Compound P-0298, 3-[5-(4′-methyl-biphenyl-2-sulfonyl)-5H-[1,3]dioxolo[4,5-f]inddol-7-yl]-propionic acid]	≤ 1000 nM
CC(C)Oc1ccc2c(c1)c(CCC(=O)O)cn2S(=O)(=O)c1ccc(Cl)c(Cl)c1 [Compound P-0309, 3-[1-(3,4-Dichloro-benzenesulfonyl)-5-issopropoxy-1H-indol-3-yl]-propionic acid]	≤ 1000 nM
Cc1nn(C)c(C)c1S(=O)(=O)n1cc(CCC(=O)O)c2cc(OC(C)C)ccc21 [Compound P-0376, 3-[5-Isopropoxy-1-(1,3,5-trimethyl-1H-pyrazole-4-sulfonyl)-1H-indol-3-yl]-propionic acid]	≤ 1000 nM
CCOc1ccc2c(c1)c(CCC(=O)O)cn2S(=O)(=O)c1cccc(Oc2ccc(Cl)c(Cl)c2)c1 [Compound P-0052, 3-{1-[3-(3,4-Dichloro-phenoxy)-benzenesulfonyl]-5-ethoxy-1H-indol-3-yl}-propionic acid]	≤ 1000 nM
COc1ccc2c(c1)c(CCC(=O)O)cn2S(=O)(=O)c1ccc(Oc2ccccc2)nc1 [Compound P-0215, 3-[5-Methoxy-1-(6-phenoxy-pyridine-3-sulfonyl)-1H-indol-3-yl]-propionic acid]	≤ 1000 nM
CCOc1ccc2c(c1)c(CCC(=O)O)cn2S(=O)(=O)c1c(C)nn(C)c1C [Compound P-0381, 3-[5-Ethoxy-1-(1,3,5-trimethyl-1H-pyrazole-4-sulfonyl)-1H-indol-3-yl]-propionic acid]	≤ 1000 nM

The remaining lines, values ahead:

EC50	SMILES
≤ 1000 nM	COc1ccc2c(c1)c(CCC(=O)O)cn2S(=O)(=O)c1cccc(Oc2ccc(Cl)cc2)c1 [Compound P-0567, 3-{1-[3-(4-Chloro-phenoxy)-benzenesulfonyl]-5-methoxy-1H-indol-3-yl}-propionic acid]
≤ 1000 nM	CCOc1ccc2c(c1)c(CCC(=O)O)cn2S(=O)(=O)c1sc(C)cc1-c1ccc(C)cc1 [Compound P-0524, 3-[5-Ethoxy-1-(5-methyl-3-p-tolyl-thiophene-2-sulfonyl)-1H-indol-3-yl]-propionic acid]
≤ 1000 nM	CCOc1ccc(-c2ccccc2S(=O)(=O)n2cc(CCC(=O)O)c3cc(OCC)ccc32)cc1 [Compound P-0535, 3-[5-Ethoxy-1-(4′-ethoxy-biphenyl-2-sulfonyl)-1H-indol-3-yl]-propionic acid]
≤ 1000 nM	O=C(O)CCc1cn(S(=O)(=O)c2ccc(Oc3ccc(C(F)(F)F)cc3)cc2)c2ccc(-c3ccccc3)cc12 [Compound P-0082, 3-{5-phenyl-1-[4-(4-trifluoromethyl-phenoxy)-benzesulfonyl]-1H-indol-3-yl}-propionic acid]
≤ 1000 nM	CCOc1ccc2c(c1)c(CCC(=O)O)cn2S(=O)(=O)c1ccc(-c2cc(Cl)cc(Cl)c2)s1 [Compound P-0419, 3-{1-[5-(3,5-Dichloro-phenyl)-thiophene-2-sulfonyl]-5-ethoxy-1H-indol-3-yl}-propionic acid]
≤ 1000 nM	COc1ccc2c(c1)c(CCC(=O)O)cn2S(=O)(=O)c1ccc(Oc2ccc(Cl)c(Cl)c2)cc1 [Compound P-0049, 3-{1-[4-(3,4-Dichloro-phenoxy)-benzenesulfonyl]-5-methoxy-1H-indol-3-yl}-propionic acid]
≤ 1000 nM	CCCCNC(=O)Nc1ccc(S(=O)(=O)n2cc(CCC(=O)O)c3cc(OC)ccc32)cc1 [Compound P-0360, 3-{1-[4-(3-Butyl-ureido)-benzenesulfonyl]-5-methoxy-1H-indol-3-yl}-propionic acid]
≤ 1000 nM	O=C(O)CCc1cn(S(=O)(=O)c2ccc(-c3ccc(Cl)cc3)s2)c2ccc(F)cc12 [Compound P-0402, 3-{1-[5-(4-Chloro-phenyl)-thiophene-2-sulfonyl]-5-fluoro-1H-indol-3-yl}-propionic acid]
≤ 1000 nM	Cc1noc(C)c1-c1ccc(S(=O)(=O)n2cc(CCC(=O)O)c3cc(Cl)ccc32)s1 [Compound P-0506, 3-{5-Chloro-1-[5-(3,5-dimethyl-isoxazol-4-yl)-thiophene-2-sulfonyl]-1H-indol-3-yl}-propionic acid]
≤ 1000 nM	COc1ccc2c(c1)c(CCC(=O)O)cn2S(=O)(=O)c1cccc(-c2ccc(C(F)(F)F)cc2)c1 [Compound P-0570, 3-[5-Methoxy-1-(4′-trifluoromethyl-biphenyl-3-sulfonyl)-1H-indol-3-yl]-propionic acid]
≤ 1000 nM	CCOc1ccc2c(c1)c(CCC(=O)O)cn2S(=O)(=O)c1ccc(-c2cnn(C)c2)s1 [Compound P-0455, 3-{5-Ethoxy-1-[5-(1-methyl-1H-pyrazol-4-yl)-thiophene-2-sulfonyl]-1H-indol-3-yl}-propionic acid]
≤ 1000 nM	COc1ccc2c(c1)c(CCC(=O)O)cn2S(=O)(=O)c1ccc(-c2cc(C(F)(F)F)n(C)n2)s1 [Compound P-0069, 3-{5-Methoxy-1-[5-(1-methyl-5-trifluoromethyl-1H-pyrazol-3-yl)-thiophene-2-sulfonyl]-1H-indol-3-yl}-propionic acid]
